Amino acid sequences for entries named in this document (tags omitted). A change or cut given only in a name is not applied to a line headed by its entry.
UniProt P01574: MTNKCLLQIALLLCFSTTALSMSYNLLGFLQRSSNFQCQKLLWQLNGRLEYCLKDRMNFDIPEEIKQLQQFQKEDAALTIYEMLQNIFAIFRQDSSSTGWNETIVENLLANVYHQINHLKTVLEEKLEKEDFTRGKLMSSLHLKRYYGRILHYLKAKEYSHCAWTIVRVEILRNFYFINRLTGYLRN

In patent US20060251664A1, “Method for the identification of epitopes related to immunogenicity in biopharmaceuticals” (priority 2005, published 2006):

Test system: HLA-DR molecules of human dendritic cells
Assay: Identification of naturally processed HLA-DR-associated peptide epitopes from dendritic cells pulsed with the therapeutic protein (L243 immunoprecipitation, 2D-LC/MS-MS)
Assay type: cell-based
Settings: IFN-β-1b 20 μg/ml, 24 hrs

B1: Betaseron: IFN-β-1b expressed in E. coli, non-glycosylated, Met-1 deletion and Cys-17 to Ser point-mutation (protein, UniProt P01574 22-187, looked up, variant M1* C17S)
Interferon beta: SYNLLGFLQRSSNFQSQKLLWQLNGRLEYCLKDRMNFDIPEEIKQLQQFQKEDAALTIYEMLQNIFAIFRQDSSSTGWNETIVENLLANVYHQINHLKTVLEEKLEKEDFTRGKLMSSLHLKRYYGRILHYLKAKEYSHCAWTIVRVEILRNFYFINRLTGYLRN
modifications: non-glycosylated, E. coli
notes: IFN-β-1b expressed in E. coli, non-glycosylated, Met-1 deletion and Cys-17 to Ser point-mutation
number of IFN-β-1b-derived epitopes among HLA-DR-associated ligands (dendritic cells HLA-DRB1*0101/0701): one
number of IFN-β-1b-derived epitopes among HLA-DR-associated ligands (dendritic cells HLA-DRB1*0101/1401): 2
number of IFN-β-1b-derived epitopes among HLA-DR-associated ligands (dendritic cells HLA-DRB1*0801/0801): 2
number of IFN-β-1b-derived epitopes among HLA-DR-associated ligands (dendritic cells HLA-DRB1*1101/1404): 2
number of IFN-β-1b-derived epitopes among HLA-DR-associated ligands (dendritic cells HLA-DRB1*1303/1501): 1
